Data from PubChem BioAssay AID256 (DTP/NCI, 2004).
The list is a part of this screen's results and no random one: it is rich in T/C values a quarter to a half above the control, in often repeated tests (any T/C) and in doses without a T/C. Further doses and runs are listed elsewhere. T/C: endpoint of the treated group in % of that of the vehicle group. Some entries give survivors of the animals treated and no T/C: the source holds a T/C of zero for them, seemingly a mark for toxic or unscored doses. Some survivor counts are full or nearly so, which does not show that the dose was tolerated: survival well below the control is almost never listed, so the zero probably covers shortened survival too. Counts of survivors are from the toxicity check (mostly the fifth day) where no day follows; animals may have died later. Schedule codes are those of the source, read here as Q, the interval in days (D) or hours (H), X, the number of doses. Some structures stand for samples that the source files as different forms (salt, stereo form or complex); doses refer to the form tested. For survival time, the PubChem record calls one and a half times the control and up active, and a quarter to a half above the control has no call in these data; cut-offs in other NCI protocols can differ. Some entries were tested several times; their values stand side by side, smallest first.

Test system: CD2F1 mice, L1210 leukemia ip, survival T/C
Assay: NCI In Vivo Anticancer Drug Screen. Data for tumor model L1210 Leukemia (intraperitoneal) in CD2F1 (CDF1) mice
Settings: higher T/C = longer survival
Summary of the method: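 Vehicle-treated tumor-bearing mice served as controls (C) for compound-treated mice (T). Reported figure is T divided by C.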

[1] = T/C endpoint: mean survival time, dose: 400.0 mg/kg/injection, schedule: Q04DX002 (ip), vehicle: saline with Tween-80
[2] = T/C endpoint: mean survival time, dose: 100.0 mg/kg/injection, schedule: Q04DX003 (ip), vehicle: saline with Tween-80
[3] = T/C endpoint: mean survival time, dose: 400.0 mg/kg/injection, schedule: Q04DX003 (ip), vehicle: saline with Tween-80
[4] = T/C endpoint: mean survival time, dose: 400.0 mg/kg/injection, schedule: Q04DX003 (ip), vehicle: saline
[5] = T/C endpoint: mean survival time, dose: 25.0 mg/kg/injection, schedule: Q04DX003 (ip), vehicle: saline
[6] = T/C endpoint: mean survival time, dose: 50.0 mg/kg/injection, schedule: Q04DX003 (ip), vehicle: saline
[7] = T/C endpoint: mean survival time, dose: 400.0 mg/kg/injection, schedule: Q01DX001 (ip), vehicle: saline
[8] = T/C endpoint: mean survival time, dose: 35.0 mg/kg/injection, schedule: Q01DX009 (ip), vehicle: saline
[9] = T/C endpoint: mean survival time, dose: 55.0 mg/kg/injection, schedule: Q01DX009 (ip), vehicle: saline
[10] = T/C endpoint: mean survival time, dose: 80.0 mg/kg/injection, schedule: Q01DX009 (ip), vehicle: saline
[11] = T/C endpoint: mean survival time, dose: 400.0 mg/kg/injection, schedule: Q01DX009 (ip), vehicle: saline

SMILES: O=C1CC(=O)C(CCc2cccc3ccccc23)C1=O (stereo not given)
- survivor count [1]: 1 of 3

SMILES: COc1cccc2c1C(=O)c1c(O)c3c(c(O)c1C2=O)C[C@@](O)(/C(C)=N\NC=O)C[C@@H]3OC1CC(N)C(O)C(C)O1 (stereo not given in full)
- T/C (T/C endpoint: mean survival time, dose: 3.0 mg/kg/injection, schedule: Q01DX009 (ip), vehicle: saline): 127 % of control
- T/C (T/C endpoint: mean survival time, dose: 5.0 mg/kg/injection, schedule: Q01DX009 (ip), vehicle: saline): 134 % of control
- T/C (T/C endpoint: mean survival time, dose: 8.0 mg/kg/injection, schedule: Q01DX009 (ip), vehicle: saline): 140 and 148 % of control
- T/C (T/C endpoint: mean survival time, dose: 8.0 mg/kg/injection, schedule: Q04DX003 (ip), vehicle: saline): 132 % of control
- T/C (T/C endpoint: mean survival time, dose: 13.3 mg/kg/injection, schedule: Q01DX009 (ip), vehicle: saline): 143 % of control
- T/C (T/C endpoint: mean survival time, dose: 13.3 mg/kg/injection, schedule: Q04DX003 (ip), vehicle: saline): 125 % of control

SMILES: CC(C#N)(Nc1ccccc1)c1ccc(Cl)cc1 (stereo not given)
- survivor count (T/C endpoint: mean survival time, dose: 100.0 mg/kg/injection, schedule: Q01DX009 (ip), vehicle: saline with Tween-80): 6 of 6
- survivor count [2]: 6 of 6
- survivor count [3]: 3 of 6

SMILES: CC([NH-])C(=O)O.[Cl][Pt][Cl] (stereo not given)
- survivor count (T/C endpoint: mean survival time, dose: 100.0 mg/kg/injection, schedule: Q04DX003 (ip), vehicle: saline): 0 of 6
- survivor count (T/C endpoint: mean survival time, dose: 200.0 mg/kg/injection, schedule: Q04DX003 (ip), vehicle: saline): 0 of 6
- survivor count [4]: 0 of 6

SMILES: O=c1cc[nH]c2cc(Cl)ccc12
- survivor count (T/C endpoint: mean survival time, dose: 400.0 mg/kg/injection, schedule: Q04DX003 (ip), vehicle: alcohol): 1 of 6

SMILES: c1ccc2c(c1)nnn2-c1ccncc1
- survivor count [3]: 5 of 6

SMILES: C[N+]1(C)CCC(OC(=O)C(O)(c2ccccc2)C2CCCC2)C1 (stereo not given)
- survivor count [5]: 5 of 6
- T/C [6]: 130 % of control
- survivor count (T/C endpoint: mean survival time, dose: 200.0 mg/kg/injection, schedule: Q01DX001 (ip), vehicle: saline): 1 of 3
- survivor count [7]: 0 of 3

SMILES: CCOC(=O)c1ccc(NC(=O)Oc2ccc(NC(C)=O)cc2)cc1
- survivor count [1]: 3 of 3

SMILES: CCCCCCCCCCOc1ccc(OCCCCCCCCC)cc1
- survivor count (T/C endpoint: mean survival time, dose: 400.0 mg/kg/injection, schedule: Q01DX001 (ip), vehicle: saline with Tween-80): 6 of 6

SMILES: O=C1C(Cl)=C(Cl)C(=O)c2ccccc21
- survivor count (T/C endpoint: mean survival time, dose: 100.0 mg/kg/injection, schedule: Q04DX003 (ip), vehicle: Klucel (hydroxypropylcellulose) (HPC)): 0 of 6
- survivor count (T/C endpoint: mean survival time, dose: 200.0 mg/kg/injection, schedule: Q04DX003 (ip), vehicle: Klucel (hydroxypropylcellulose) (HPC)): 0 of 6
- survivor count (T/C endpoint: mean survival time, dose: 400.0 mg/kg/injection, schedule: Q04DX003 (ip), vehicle: Klucel (hydroxypropylcellulose) (HPC)): 0 of 6

SMILES: NC(=O)C1OC(n2cnc3c(N)ncnc32)C(O)C1O (stereo not given)
- survivor count (T/C endpoint: mean survival time, dose: 100.0 mg/kg/injection, schedule: Q01DX005 (ip), vehicle: saline): 0 of 6
- survivor count (T/C endpoint: mean survival time, dose: 200.0 mg/kg/injection, schedule: Q01DX005 (ip), vehicle: saline): 0 of 6

SMILES: O=C(CC(=O)C(F)(F)C(F)(F)C(F)(F)F)C(F)(F)F.O=C(CC(=O)C(F)(F)C(F)(F)C(F)(F)F)C(F)(F)F.[Cu]
- survivor count (T/C endpoint: median survival time, dose: 50.0 mg/kg/injection, schedule: Q04DX002 (ip), vehicle: saline with Tween-80): 1 of 3
- survivor count (T/C endpoint: median survival time, dose: 100.0 mg/kg/injection, schedule: Q04DX002 (ip), vehicle: saline with Tween-80): 0 of 3
- survivor count (T/C endpoint: median survival time, dose: 200.0 mg/kg/injection, schedule: Q04DX002 (ip), vehicle: saline with Tween-80): 0 of 3

SMILES: O=c1cc2cccccc-2cc1O
- survivor count (T/C endpoint: mean survival time, dose: 80.0 mg/kg/injection, schedule: Q04DX003 (ip), vehicle: saline with Tween-80): 2 of 6

SMILES: O=c1nc(-c2ccco2)sc(=O)[nH]1
- survivor count (T/C endpoint: median survival time, dose: 400.0 mg/kg/injection, schedule: Q01DX009 (ip), vehicle: Klucel (hydroxypropylcellulose) (HPC)): 0 of 6

SMILES: COC1=C(N2CC2)C(=O)C(OC)=C(N2CC2)C1=O
- T/C (T/C endpoint: mean survival time, dose: 2.0 mg/kg/injection, schedule: Q01DX015 (ip), vehicle: saline): 136 % of control

SMILES: CS(=O)(=O)OCC(=O)NCCCCNC(=O)COS(C)(=O)=O
- survivor count [7]: 1 of 6

SMILES: Cc1cccc(Cl)c1NC1=NCCO1
- survivor count [2]: 3 of 6
- survivor count (T/C endpoint: mean survival time, dose: 200.0 mg/kg/injection, schedule: Q04DX003 (ip), vehicle: saline with Tween-80): 0 of 6
- survivor count [3]: 2 of 6

SMILES: N#CN=C([S-])[S-].N#CN=C([S-])[S-].[Cu]
- survivor count [8]: 3 of 6
- survivor count (T/C endpoint: mean survival time, dose: 50.0 mg/kg/injection, schedule: Q04DX003 (ip), vehicle: acetone): 1 of 6
- survivor count [9]: 0 of 6
- survivor count [10]: 0 of 6

SMILES: CCCC(C)C1(CC)NC(C)(C)CC(C)O1 (stereo not given)
- survivor count [3]: 3 of 6

SMILES: O=C1Nc2ccccc2/C1=N/N=C/c1cc(Cl)cc(Cl)c1O
- survivor count (T/C endpoint: mean survival time, dose: 200.0 mg/kg/injection, schedule: Q01DX001 (ip), vehicle: saline with Tween-80): 6 of 6

SMILES: COc1cc(Br)c(CC2c3cc(OC)c(OC)cc3CCN2C)cc1OC (stereo not given)
- survivor count [7]: 1 of 6

SMILES: N#Cc1c(F)c(F)c(NN)c(F)c1F
- survivor count [3]: 2 of 6

SMILES: S=c1nn[nH]n1-c1ccccc1
- survivor count [11]: 0 of 6

SMILES: [N-]=[N+]=CC(=O)CCC(=O)C=[N+]=[N-]
- T/C (T/C endpoint: mean survival time, dose: 6.25 mg/kg/injection, schedule: Q01DX009 (ip), vehicle: other): 141 % of control
- survivor count (T/C endpoint: mean survival time, dose: 50.0 mg/kg/injection, schedule: Q01DX009 (ip), vehicle: other): 6 of 6

SMILES: CC1CC1C(=O)O (stereo not given)
- survivor count [4]: 0 of 3

SMILES: O=C1C=CC(=O)N1CN1CCOCC1
- survivor count (T/C endpoint: mean survival time, dose: 17.5 mg/kg/injection, schedule: Q01DX009 (ip), vehicle: saline): 6 of 6
- survivor count [5]: 3 of 6
- survivor count [8]: 3 of 6
- survivor count [6]: 0 of 6
- survivor count [9]: 0 of 6
- survivor count [10]: 0 of 6

SMILES: COc1ccc2c(c1O)C1=CC(=O)CCC13CCN(C)C3C2 (stereo not given)
- survivor count [11]: 2 of 6
